For 2 substances, binding results are on record in PMC7715031.

By UniProt entry, the sequences of proteins in these tests, tags left out. Residues count along the entry.
UniProt Q9H7M9, residues 33-311: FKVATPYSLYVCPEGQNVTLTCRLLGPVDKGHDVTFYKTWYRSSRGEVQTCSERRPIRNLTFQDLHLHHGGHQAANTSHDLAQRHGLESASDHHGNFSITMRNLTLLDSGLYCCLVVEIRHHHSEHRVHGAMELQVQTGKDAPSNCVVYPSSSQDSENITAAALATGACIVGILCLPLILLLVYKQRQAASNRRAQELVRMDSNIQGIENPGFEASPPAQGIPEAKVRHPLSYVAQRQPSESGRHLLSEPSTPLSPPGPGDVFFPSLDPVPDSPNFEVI
UniProt Q8TDQ0, residues 22-124: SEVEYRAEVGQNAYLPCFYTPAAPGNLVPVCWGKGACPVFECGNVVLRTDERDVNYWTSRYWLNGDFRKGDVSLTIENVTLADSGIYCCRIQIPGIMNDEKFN

Test [1] deals with V-domain Ig-containing suppressor of T cell activation (VISTA), from Jurkat T cells (human (endogenous in Jurkat T cells)) (UniProt Q9H7M9). Put plainly: ELISA; VISTA from Jurkat T cell lysate captured on the plate by goat anti-VISTA antibody; medium of PMA-treated THP-1 cells applied 2 h; bound galectin-9 measured with an ELISA kit.
For test [2] the target is unchanged. Put plainly: co-IP; VISTA from Jurkat T cell lysate captured on a Maxisorp ELISA plate by goat anti-VISTA antibody, blocked with 2% BSA; medium of PMA-treated THP-1 cells applied 2 h at room temperature; washed with TBST; eluted with 0.2 M glycine-HCl pH 2.0; Western blot for galectin-9.
Test [3] concerns the target human Ig-like V-type domain of Tim-3 (amino acid residues 22-124) (human) (UniProt Q8TDQ0). Briefly: synchrotron radiation circular dichroism (SRCD) spectroscopy; equimolar mixture of VISTA-Fc (Fc spectra subtracted), galectin-9 and Tim-3; observed spectrum compared with the simulated spectrum; both purified.
Test [4] has the same target. Briefly: ELISA; recombinant Tim-3 or VISTA immobilised on the ELISA plate, exposed to galectin-9 for 2 h; galectin-9 detected with ELISA detection antibody; with or without pre-incubation with the corresponding neutralizing antibody; both purified.

No constants are given. Whether binding was seen depends on the method and setting. For some of these results: Binding seen in cells or lysates may run through a third protein. Some results given as binding are weak or reduced against the parent protein; the word gives no strength.

Turning to “galectin-9 secreted by PMA-treated THP-1 human AML cells (from UniProt O00182 1-355) (ligand)”, the binding entry in test [1] and in test [2] was “binds” each time.

For the substance “human recombinant galectin-9 (from UniProt O00182 1-355) (ligand)”, the binding result in test [3] and in test [4] was “binds” in each case.
